This passage reports binding results from patent US20210269836A1 (JOHN INNES CENTRE, published 2021).

Test [1] has as its target T1, YFPC-DPAS (dehydroprecondylocarpine acetate synthase fused at its N-terminus to the C-terminal split YFP fragment) (Catharanthus roseus).
T1 sequence: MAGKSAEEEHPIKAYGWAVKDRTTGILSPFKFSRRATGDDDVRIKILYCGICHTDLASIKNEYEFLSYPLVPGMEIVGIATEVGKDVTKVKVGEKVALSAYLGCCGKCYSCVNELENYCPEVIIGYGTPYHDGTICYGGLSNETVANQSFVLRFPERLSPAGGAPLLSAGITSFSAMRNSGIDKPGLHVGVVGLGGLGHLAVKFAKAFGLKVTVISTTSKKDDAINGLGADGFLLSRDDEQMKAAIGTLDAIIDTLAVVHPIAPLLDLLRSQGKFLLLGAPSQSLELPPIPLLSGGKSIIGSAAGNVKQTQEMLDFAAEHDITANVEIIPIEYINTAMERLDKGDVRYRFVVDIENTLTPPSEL
As to the kind of experiment: BiFC in C. roseus cells, co-expression of DPAS-YFPN and YFPC-DPAS.

For test [2] the target is unchanged. The test can be described thus: BiFC in C. roseus cells, co-expression of YFPN-DPAS and YFPC-DPAS.
For test [3] the target is unchanged. As to the kind of experiment: BiFC in C. roseus cells.

These are yes or no findings as the source states them, for the method shown. Some results given as binding are weak or reduced against the parent protein; the word gives no strength. Where a sequence is shown, tags or fusion partners need not be part of it.

B1: DPAS-YFPN (DPAS fused at its C-terminus to the N-terminal split YFP fragment) (enzyme, not shown: large carriers)
chain: T1 sequence
For the molecule B1, in test [1], the binding result is “binds”.

B2: YFPN-DPAS (DPAS fused at its N-terminus to the N-terminal split YFP fragment) (enzyme, not shown: large carriers)
chain: T1 sequence
With B2, the binding result in test [2] was “binds”.

B3: TS-YFPN (Tabersonine Synthase fused at its C-terminus to the N-terminal split YFP fragment) (enzyme)
chain: MGSSDETIFDLPPYIKVFKDGRVERLHSSPYVPPSLNDPETGGVSWKDVPISSVVSARIYLPKINNHDEKLPIIVYFHGAGFCLESAFKSFFHTYVKHFVAEAKAIAVSVEFRLAPENHLPAAYEDCWEALQWVASHVGLDISSLKTCIDKDPWIINYADFDRLYLWGDSTGANIVHNTLIRSGKEKLNGGKVKILGAILYYPYFLIRTSSKQSDYMENEYRSYWKLAYPDAPGGNDNPMINPTAENAPDLAGYGCSRLLISMVADEARDITLLYIDALEKSGWKGELDVADFDKQYFELFEMETEVAKNMLRRLASFIK
notes: BiFC fusion expressed transiently inside C. roseus cells; also called TS-YN; not shown: N-terminal split YFP fragment (YFPN) from plasmid pSCA-SPYNE173
Take B3: the binding entry in test [3] was “binds”.
